23 targets from the supplement of paper PMC10849652 can be followed below.

Protein sequences, listed by entry. Tags and fused reporters are not part of them. Lines headed by an entry give the natural chain unless they say otherwise; changes in a name come on top.
UniProt Q3KQU3: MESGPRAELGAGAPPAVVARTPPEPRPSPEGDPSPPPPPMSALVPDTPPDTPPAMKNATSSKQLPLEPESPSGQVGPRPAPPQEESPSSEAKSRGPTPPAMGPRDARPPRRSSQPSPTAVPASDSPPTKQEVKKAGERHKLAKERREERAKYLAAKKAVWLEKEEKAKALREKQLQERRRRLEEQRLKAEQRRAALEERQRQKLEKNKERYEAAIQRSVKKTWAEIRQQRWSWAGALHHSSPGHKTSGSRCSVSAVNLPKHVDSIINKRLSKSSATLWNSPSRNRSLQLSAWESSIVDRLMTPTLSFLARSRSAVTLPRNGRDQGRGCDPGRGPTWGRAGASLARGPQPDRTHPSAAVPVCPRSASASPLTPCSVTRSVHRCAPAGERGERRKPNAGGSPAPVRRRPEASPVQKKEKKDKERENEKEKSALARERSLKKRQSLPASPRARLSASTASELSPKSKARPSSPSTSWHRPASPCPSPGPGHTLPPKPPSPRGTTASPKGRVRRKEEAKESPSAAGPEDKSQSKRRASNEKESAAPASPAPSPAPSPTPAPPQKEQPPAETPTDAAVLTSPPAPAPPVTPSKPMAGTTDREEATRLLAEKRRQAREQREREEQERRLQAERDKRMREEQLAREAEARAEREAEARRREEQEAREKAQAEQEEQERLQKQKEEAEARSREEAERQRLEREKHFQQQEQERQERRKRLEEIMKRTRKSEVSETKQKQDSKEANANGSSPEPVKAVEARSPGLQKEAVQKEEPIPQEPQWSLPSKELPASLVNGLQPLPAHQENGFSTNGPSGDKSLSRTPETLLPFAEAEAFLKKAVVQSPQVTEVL
UniProt O60337: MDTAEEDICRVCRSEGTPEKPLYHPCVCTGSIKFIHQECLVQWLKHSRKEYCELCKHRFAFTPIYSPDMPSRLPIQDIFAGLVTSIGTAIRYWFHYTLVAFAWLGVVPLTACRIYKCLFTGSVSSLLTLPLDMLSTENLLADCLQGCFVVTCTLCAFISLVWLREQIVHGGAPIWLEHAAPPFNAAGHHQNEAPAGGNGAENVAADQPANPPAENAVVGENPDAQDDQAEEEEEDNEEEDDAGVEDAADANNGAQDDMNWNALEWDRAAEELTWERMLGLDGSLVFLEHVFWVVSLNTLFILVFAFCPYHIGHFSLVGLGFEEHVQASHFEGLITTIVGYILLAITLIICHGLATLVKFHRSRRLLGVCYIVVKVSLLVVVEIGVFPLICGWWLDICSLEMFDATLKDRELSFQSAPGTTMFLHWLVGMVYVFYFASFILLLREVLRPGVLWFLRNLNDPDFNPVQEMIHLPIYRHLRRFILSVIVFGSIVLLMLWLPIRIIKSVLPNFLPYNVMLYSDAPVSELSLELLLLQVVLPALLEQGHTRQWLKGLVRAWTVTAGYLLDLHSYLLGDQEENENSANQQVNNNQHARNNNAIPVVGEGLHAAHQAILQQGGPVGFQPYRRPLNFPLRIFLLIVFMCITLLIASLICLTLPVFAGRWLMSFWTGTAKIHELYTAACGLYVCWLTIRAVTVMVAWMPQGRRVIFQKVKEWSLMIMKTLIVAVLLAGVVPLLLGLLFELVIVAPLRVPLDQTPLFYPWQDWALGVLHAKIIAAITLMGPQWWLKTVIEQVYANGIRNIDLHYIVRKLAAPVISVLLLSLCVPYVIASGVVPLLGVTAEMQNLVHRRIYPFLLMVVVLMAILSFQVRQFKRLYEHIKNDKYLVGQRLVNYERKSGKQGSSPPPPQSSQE
UniProt Q8IWT6: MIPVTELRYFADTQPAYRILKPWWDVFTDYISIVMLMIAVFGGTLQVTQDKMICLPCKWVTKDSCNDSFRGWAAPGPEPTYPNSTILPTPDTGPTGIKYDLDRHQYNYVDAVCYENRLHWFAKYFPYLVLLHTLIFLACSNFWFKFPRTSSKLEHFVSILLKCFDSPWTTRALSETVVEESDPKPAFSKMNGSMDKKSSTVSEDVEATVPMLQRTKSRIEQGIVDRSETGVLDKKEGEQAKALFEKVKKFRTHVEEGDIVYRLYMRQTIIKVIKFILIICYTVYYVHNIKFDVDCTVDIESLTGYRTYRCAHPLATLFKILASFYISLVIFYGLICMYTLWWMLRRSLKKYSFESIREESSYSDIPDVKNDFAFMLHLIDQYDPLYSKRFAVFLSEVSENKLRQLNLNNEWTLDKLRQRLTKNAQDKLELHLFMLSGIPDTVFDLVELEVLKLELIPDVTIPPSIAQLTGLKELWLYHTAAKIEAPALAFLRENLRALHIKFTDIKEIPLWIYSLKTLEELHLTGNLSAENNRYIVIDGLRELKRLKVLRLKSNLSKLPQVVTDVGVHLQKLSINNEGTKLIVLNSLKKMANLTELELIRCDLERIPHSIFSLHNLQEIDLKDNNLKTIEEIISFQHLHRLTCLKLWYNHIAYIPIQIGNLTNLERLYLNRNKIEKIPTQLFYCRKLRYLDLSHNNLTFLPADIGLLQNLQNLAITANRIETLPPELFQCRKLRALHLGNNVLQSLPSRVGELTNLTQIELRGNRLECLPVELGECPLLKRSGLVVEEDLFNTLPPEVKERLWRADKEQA
UniProt P20645: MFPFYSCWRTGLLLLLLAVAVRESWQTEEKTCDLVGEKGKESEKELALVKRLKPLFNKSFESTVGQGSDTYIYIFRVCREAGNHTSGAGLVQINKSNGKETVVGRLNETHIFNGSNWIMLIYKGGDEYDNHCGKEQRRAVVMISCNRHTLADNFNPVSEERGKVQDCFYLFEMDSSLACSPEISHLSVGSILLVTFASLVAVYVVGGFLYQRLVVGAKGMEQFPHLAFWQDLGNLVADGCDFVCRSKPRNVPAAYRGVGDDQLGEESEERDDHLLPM
UniProt P62312: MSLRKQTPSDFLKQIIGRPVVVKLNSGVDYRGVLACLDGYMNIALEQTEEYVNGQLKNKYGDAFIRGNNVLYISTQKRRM
UniProt Q9Y608: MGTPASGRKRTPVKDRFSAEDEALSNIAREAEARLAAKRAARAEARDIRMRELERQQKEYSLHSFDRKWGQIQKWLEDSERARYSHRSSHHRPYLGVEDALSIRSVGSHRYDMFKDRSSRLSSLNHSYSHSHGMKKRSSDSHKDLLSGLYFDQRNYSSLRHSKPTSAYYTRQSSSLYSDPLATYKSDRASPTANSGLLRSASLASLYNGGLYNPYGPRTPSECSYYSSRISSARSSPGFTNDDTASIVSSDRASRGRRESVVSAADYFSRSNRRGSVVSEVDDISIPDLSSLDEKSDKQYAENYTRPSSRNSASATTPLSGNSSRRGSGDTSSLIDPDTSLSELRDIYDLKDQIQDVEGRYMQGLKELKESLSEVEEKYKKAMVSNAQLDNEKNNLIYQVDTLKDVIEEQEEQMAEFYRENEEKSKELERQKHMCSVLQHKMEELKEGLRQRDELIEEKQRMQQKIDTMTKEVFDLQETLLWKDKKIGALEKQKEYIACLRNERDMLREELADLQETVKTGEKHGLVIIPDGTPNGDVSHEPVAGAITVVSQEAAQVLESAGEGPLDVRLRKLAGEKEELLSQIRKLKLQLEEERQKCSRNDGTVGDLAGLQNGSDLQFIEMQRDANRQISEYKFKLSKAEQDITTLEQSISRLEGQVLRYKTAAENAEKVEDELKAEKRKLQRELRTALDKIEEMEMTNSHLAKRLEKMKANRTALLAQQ
UniProt Q6UWE0: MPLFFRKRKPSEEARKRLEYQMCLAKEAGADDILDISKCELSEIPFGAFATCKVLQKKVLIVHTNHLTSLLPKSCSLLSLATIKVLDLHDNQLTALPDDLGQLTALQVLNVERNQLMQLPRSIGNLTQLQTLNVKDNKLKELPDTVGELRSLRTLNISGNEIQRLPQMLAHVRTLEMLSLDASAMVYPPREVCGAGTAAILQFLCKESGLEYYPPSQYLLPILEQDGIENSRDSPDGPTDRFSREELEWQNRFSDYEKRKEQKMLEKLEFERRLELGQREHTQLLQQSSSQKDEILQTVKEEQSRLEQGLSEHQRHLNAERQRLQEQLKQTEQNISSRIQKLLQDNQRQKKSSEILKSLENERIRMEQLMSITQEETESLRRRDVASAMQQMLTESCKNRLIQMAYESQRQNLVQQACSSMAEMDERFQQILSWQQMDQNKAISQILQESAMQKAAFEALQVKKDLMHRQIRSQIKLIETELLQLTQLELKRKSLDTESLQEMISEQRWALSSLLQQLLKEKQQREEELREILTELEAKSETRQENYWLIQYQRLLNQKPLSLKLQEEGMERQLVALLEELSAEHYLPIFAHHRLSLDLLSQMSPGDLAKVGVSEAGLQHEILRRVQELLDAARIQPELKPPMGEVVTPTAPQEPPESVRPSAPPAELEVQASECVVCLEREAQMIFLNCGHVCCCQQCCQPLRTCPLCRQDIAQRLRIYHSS
UniProt P28482, whole entry, looked up: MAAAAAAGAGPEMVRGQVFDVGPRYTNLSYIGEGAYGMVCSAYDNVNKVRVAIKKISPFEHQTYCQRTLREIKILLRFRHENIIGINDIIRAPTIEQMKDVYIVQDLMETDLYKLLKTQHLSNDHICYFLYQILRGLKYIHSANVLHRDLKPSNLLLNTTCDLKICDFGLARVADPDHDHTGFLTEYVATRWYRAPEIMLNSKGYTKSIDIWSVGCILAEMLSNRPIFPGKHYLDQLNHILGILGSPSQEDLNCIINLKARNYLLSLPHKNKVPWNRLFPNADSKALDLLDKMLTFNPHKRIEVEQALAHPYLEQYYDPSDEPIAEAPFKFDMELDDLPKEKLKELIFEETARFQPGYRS
UniProt Q8N5G2: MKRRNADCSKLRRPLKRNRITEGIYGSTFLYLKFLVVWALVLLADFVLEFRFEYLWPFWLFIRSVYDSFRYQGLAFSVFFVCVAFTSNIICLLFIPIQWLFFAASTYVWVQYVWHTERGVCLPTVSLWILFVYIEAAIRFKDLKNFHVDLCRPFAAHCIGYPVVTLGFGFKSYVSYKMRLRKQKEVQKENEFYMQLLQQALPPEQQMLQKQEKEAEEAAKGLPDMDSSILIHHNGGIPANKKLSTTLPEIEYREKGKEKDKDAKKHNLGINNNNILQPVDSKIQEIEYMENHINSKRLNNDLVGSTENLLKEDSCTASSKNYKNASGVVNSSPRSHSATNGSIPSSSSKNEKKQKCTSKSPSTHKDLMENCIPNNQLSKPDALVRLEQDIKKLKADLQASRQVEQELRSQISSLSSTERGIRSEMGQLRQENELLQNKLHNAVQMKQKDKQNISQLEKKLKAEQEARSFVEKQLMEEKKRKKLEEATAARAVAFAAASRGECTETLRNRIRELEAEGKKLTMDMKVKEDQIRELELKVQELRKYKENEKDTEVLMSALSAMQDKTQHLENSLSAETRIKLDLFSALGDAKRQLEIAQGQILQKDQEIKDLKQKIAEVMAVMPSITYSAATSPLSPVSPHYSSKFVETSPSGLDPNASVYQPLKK
UniProt P49641: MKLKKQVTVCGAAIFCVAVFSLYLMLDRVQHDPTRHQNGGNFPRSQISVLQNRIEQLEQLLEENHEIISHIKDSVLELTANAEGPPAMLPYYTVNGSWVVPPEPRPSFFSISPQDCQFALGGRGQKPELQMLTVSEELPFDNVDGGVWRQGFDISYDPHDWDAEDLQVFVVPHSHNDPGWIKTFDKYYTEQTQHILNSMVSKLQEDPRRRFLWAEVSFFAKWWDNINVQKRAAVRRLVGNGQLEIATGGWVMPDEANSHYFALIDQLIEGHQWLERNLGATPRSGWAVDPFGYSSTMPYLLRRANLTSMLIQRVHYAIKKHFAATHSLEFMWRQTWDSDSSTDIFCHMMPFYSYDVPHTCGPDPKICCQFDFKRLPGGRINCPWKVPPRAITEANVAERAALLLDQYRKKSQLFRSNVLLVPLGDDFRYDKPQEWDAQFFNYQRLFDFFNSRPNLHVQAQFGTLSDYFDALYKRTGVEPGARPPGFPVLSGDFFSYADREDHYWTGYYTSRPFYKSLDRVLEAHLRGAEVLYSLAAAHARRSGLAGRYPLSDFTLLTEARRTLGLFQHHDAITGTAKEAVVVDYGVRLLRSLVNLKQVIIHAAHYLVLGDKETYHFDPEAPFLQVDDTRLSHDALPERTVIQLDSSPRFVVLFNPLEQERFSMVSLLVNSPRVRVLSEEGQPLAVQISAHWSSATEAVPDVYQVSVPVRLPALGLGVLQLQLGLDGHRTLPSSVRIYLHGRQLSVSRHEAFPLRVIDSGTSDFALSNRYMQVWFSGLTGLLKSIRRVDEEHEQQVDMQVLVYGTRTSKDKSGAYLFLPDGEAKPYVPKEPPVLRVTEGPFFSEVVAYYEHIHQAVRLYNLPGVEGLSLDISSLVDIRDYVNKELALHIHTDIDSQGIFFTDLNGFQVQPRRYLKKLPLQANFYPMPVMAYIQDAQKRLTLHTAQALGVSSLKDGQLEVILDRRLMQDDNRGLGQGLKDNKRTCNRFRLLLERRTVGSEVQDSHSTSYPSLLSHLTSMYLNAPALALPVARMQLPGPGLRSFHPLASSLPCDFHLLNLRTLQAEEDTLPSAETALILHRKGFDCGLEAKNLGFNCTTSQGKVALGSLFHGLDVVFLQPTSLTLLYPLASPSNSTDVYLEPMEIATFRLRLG

The other results are listed elsewhere or left out.

Compound in the assay: CCCc1cc(C)[nH]c(=O)c1CNC(=O)c1cc(-c2ccnc(N3CCN(C)CC3)c2)cc2c1cnn2C(C)C
In words: log2 fold change, soluble protein after heating vs DMSO (PISA); higher = thermal stabilisation; K562 cells, 10 uM, 30 min; active = over 0.2 and 3.5 SD of the protein, either way, in both replicates (recomputed). In outline: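 Thermal stability values are relative to control samples and come from duplicates. They are expressed as log2 fold changes. For measurement, K562 cells (2×10^6 cells/mL) received 10 μM compound for 30 min, and aliquots were heated for 3 min over 48°C-58°C, pooled, and extracted at 4°C in PBS with 0.5% NP-40. Soluble protein, the supernatant after 21,000xg for 90 min, was quantified by TMTpro 16plex LC-MS/MS with equalised channel sums.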
As for LYRM4 (UniProt Q9HD34), the log2 fold change is inactive: 0.06. With MAGEB2 (UniProt O15479), the log2 fold change was inactive: -0.226. In the case of MAP1A isoform 2 (UniProt P78559), the log2 fold change was inactive: 0.064. As to MANBA (UniProt O00462), the log2 fold change is inactive: 0.007. On to MAP7D1 (UniProt Q3KQU3), for which the log2 fold change was inactive: 0.104. With MAEA (UniProt Q7L5Y9) the figure was inactive: -0.046; with MARCHF6 (UniProt O60337), inactive: -0.076; with LRRC8A (UniProt Q8IWT6), inactive: 0.042. As for MAGT1 (UniProt Q9H0U3), the log2 fold change was inactive: -0.024. On to M6PR (UniProt P20645), for which the log2 fold change was inactive: -0.077.

Take LSM6 (UniProt P62312): the log2 fold change was inactive: -0.055. With LSM2 (UniProt Q9Y333), the log2 fold change was inactive: -0.107. With MACF1 (UniProt H3BQK9) the figure was inactive: 0.153.

Turning to LYZ (UniProt P61626), the log2 fold change is inactive: -0.019. Consider MAP2K4 isoform 2 (UniProt P45985), for which the log2 fold change was inactive: -0.055.

On to LRRFIP2 (UniProt Q9Y608), for which the log2 fold change is inactive: 0.016. With MAN2C1 isoform 4 (UniProt Q9NTJ4) the figure was inactive: -0.13.

As for LRSAM1 (UniProt Q6UWE0), the log2 fold change is inactive: 0.021. On to MAN2A1 (UniProt Q16706), for which the log2 fold change is inactive: 0.001.

LSM4 (UniProt Q9Y4Z0): the log2 fold change was inactive: -0.047. With MAPK1 (UniProt P28482) the figure was inactive: -0.013; with MACO1 (UniProt Q8N5G2), inactive: -0.021; with MAN2A2 (UniProt P49641), inactive: -0.056.
